Reference: patent US4921953A, “Cephalosporin derivatives” (Taisho Pharmaceutical Co., Ltd., priority 1988, dated 1990)

Experiment: in vivo
Design: species or system male Japanese native strain white rabbits
Conditions: blood, rabbit, oral, 20 mg/kg suspended in 5% gum arabic, bioassay (Bacillus luteus S1101)
Method: Three male Japanese native strain white rabbits weighing 2.50 to 3.15 kg for each group were administered orally with the test compounds, and the change of the concentration of the compound in blood was measured.
Dosage of the test compound: 20 mg/kg (suspended in 5% gum arabic).
Quantitative method: Bioassy method (test bacterium: Bacillus luteus S1101).

## CC1=C(C(=O)O)N2C(=O)[C@@H](NC(=O)[C@H](N)c3ccccc3)[C@H]2SC1 [D, Cephalexin, reference compound]
Four Hours after administration
  concentration at 4 h: 600 ng/mL
One Hour after administration
  concentration at 1 h: 5500 ng/mL
Two Hours after administration
  concentration at 2 h: 2900 ng/mL
